Test results taken from the supplement of paper PMC10849652.
The other results are listed elsewhere or left out.

The chains behind the UniProt entries cited, without tags or fusion partners. Where a name states a change or a piece, a line headed by the entry shows the natural chain unless it says otherwise.
UniProt Q96AJ9: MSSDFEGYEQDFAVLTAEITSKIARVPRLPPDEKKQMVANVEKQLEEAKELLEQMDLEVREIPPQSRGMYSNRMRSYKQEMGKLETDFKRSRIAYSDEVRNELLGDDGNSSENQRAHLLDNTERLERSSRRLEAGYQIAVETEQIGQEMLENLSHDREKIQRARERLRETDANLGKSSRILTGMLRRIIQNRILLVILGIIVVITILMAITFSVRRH
UniProt Q9Y4E6, whole entry, looked up: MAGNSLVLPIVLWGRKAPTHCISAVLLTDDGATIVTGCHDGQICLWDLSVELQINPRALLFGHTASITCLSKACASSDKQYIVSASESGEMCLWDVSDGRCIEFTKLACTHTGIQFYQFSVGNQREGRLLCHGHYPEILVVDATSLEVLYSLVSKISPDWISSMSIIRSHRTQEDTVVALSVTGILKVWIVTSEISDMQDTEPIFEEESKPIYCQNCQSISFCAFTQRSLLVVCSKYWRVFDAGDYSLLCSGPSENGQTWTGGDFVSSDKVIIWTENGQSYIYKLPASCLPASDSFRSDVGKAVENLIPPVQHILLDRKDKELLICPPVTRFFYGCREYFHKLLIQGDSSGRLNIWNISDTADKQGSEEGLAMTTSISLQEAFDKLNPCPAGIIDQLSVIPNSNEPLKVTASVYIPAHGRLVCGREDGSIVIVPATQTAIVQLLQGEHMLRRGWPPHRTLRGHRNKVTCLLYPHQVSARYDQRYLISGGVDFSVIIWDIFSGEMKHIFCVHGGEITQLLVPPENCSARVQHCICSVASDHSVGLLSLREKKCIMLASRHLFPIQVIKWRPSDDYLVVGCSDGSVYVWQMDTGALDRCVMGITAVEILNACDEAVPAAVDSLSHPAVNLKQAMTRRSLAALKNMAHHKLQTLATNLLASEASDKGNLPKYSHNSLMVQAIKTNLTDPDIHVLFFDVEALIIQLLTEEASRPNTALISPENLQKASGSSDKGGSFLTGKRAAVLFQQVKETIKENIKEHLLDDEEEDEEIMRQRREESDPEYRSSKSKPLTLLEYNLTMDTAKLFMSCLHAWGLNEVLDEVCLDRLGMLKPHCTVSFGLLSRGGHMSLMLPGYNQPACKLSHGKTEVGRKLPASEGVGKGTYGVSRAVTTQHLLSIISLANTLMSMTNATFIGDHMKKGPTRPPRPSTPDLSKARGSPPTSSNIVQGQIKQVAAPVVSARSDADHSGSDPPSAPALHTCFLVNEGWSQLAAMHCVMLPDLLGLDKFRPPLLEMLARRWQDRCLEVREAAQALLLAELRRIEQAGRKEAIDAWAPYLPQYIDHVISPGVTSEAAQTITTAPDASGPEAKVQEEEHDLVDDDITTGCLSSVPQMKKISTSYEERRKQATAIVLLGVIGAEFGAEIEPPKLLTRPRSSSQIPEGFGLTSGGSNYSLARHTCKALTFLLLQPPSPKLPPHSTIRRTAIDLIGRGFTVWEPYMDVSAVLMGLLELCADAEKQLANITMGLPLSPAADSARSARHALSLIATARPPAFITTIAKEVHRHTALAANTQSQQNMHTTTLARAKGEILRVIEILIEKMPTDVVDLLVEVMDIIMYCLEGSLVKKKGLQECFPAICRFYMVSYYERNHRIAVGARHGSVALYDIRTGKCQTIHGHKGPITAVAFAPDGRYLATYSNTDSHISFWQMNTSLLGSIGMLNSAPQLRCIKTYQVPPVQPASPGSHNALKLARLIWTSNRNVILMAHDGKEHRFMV
UniProt Q15007: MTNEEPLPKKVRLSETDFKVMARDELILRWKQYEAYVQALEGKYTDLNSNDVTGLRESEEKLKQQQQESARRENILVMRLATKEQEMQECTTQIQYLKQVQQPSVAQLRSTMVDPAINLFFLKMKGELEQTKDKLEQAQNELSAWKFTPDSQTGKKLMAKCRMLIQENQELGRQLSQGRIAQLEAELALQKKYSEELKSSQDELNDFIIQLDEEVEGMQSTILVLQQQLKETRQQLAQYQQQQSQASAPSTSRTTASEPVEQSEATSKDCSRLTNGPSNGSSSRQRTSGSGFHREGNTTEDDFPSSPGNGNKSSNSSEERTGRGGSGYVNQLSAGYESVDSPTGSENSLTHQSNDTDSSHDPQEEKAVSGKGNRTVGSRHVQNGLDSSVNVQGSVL
UniProt Q9H6R7: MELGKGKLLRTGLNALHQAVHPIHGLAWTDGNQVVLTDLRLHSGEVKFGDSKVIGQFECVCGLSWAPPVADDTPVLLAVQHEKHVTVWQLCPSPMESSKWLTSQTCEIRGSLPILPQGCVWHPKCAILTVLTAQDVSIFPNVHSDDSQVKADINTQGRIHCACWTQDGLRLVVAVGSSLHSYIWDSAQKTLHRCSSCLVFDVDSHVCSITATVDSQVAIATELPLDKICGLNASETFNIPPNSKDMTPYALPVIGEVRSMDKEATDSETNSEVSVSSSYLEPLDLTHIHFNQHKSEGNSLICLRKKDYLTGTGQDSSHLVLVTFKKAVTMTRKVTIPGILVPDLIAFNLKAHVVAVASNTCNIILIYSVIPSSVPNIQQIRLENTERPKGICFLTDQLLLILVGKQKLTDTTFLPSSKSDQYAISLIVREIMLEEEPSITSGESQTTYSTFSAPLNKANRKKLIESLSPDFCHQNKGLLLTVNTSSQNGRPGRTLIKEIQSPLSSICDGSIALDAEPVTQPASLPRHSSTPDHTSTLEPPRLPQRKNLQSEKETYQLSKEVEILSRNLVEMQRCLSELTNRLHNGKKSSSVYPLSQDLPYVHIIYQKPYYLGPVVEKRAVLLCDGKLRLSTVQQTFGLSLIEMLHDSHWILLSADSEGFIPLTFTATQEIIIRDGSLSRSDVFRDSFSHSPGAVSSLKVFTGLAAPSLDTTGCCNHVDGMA
UniProt Q502W6: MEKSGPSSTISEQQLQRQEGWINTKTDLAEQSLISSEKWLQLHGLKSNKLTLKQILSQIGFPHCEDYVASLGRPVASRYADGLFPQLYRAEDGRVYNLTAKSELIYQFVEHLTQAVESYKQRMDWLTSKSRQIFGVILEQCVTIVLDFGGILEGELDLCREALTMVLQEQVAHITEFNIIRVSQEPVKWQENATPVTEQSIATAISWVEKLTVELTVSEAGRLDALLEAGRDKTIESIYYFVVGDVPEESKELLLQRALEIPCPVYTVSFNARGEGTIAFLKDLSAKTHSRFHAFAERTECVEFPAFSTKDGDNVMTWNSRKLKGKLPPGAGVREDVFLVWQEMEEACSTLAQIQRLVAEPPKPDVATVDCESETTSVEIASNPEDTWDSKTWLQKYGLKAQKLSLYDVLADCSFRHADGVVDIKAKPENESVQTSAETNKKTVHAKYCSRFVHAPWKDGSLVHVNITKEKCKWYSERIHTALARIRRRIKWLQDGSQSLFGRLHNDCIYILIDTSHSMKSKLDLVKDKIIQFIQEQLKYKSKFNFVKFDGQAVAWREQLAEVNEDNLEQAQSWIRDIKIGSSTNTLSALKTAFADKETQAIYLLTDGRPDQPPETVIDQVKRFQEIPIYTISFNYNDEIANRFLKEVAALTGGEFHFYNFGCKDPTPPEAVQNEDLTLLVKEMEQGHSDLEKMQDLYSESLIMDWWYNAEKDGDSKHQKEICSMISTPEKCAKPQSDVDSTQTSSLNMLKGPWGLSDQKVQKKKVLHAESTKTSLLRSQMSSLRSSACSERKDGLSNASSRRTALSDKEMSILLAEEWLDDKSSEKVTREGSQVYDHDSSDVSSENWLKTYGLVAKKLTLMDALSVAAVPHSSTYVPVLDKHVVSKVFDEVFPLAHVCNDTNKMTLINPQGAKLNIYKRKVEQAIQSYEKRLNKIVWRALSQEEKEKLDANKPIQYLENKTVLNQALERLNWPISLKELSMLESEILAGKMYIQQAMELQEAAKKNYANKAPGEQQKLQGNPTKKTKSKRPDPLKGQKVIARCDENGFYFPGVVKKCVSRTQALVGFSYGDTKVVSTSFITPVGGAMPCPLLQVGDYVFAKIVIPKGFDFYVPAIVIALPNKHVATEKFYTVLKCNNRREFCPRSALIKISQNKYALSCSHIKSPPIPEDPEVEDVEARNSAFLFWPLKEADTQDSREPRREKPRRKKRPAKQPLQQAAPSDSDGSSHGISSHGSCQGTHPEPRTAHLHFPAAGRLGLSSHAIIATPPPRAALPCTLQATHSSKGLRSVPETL
UniProt O43379: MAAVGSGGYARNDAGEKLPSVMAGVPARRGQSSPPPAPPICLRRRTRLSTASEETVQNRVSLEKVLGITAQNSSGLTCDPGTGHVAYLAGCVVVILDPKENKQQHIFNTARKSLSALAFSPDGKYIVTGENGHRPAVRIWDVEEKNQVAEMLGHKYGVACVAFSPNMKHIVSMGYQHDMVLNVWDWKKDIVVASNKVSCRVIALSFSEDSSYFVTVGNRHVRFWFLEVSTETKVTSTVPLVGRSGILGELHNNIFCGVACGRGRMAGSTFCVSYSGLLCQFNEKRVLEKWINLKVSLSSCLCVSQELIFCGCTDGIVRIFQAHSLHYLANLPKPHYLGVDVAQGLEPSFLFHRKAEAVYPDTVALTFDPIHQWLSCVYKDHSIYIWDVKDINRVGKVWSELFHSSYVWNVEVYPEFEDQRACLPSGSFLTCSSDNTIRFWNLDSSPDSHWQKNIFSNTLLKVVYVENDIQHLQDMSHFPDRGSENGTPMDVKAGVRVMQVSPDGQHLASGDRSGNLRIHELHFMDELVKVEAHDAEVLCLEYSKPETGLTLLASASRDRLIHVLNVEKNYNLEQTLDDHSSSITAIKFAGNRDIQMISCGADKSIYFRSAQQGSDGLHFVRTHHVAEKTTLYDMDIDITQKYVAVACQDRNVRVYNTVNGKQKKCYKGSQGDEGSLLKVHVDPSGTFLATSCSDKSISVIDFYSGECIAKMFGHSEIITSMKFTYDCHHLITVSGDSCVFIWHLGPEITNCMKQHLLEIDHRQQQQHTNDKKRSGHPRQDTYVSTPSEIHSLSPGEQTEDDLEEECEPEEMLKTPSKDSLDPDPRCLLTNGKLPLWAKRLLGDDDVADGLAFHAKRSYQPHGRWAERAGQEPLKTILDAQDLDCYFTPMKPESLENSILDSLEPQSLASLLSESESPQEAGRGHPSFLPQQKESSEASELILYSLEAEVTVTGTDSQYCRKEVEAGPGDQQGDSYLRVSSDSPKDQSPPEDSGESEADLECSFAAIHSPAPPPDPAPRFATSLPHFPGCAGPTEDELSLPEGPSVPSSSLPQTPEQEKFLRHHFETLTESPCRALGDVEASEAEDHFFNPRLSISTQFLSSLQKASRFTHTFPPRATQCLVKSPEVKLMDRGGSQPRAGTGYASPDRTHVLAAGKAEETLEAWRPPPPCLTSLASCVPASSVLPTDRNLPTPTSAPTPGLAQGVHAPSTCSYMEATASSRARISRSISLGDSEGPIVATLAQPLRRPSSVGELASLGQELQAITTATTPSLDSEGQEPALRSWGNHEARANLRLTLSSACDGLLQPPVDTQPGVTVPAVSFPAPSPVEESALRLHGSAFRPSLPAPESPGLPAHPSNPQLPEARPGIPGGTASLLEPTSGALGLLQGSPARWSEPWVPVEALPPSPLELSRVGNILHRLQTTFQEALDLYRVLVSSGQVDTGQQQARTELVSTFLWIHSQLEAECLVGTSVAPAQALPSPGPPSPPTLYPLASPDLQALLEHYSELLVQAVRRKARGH
UniProt Q3ZAQ7: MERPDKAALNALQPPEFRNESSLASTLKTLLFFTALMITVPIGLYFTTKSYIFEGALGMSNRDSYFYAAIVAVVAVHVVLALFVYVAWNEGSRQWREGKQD
UniProt Q8N1B4: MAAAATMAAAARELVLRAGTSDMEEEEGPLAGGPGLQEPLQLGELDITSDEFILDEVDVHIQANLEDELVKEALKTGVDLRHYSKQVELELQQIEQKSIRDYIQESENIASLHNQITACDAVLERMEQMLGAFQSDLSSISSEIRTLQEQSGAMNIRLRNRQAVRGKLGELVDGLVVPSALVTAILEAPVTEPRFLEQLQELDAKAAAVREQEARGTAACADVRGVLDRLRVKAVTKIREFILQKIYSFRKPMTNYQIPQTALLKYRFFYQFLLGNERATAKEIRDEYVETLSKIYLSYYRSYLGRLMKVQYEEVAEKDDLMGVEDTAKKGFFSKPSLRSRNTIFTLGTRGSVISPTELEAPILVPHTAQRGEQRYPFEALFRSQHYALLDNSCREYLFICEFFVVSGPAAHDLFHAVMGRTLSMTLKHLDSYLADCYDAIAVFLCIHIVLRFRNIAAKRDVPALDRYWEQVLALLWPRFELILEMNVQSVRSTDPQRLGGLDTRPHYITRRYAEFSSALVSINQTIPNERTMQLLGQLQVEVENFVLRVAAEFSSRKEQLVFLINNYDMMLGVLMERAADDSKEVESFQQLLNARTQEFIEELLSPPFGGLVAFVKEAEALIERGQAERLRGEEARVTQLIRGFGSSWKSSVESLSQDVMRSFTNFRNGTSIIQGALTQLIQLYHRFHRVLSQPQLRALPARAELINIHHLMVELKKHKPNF

Key:
Test in all cases: log2 fold change, soluble protein after heating vs DMSO (PISA); higher = thermal stabilisation; K562 cells, 10 uM, 30 min; active = over 0.2 and 3.5 SD of the protein, either way, in both replicates (recomputed)
[1] = compound: CN1CCN(CCOc2cc(OC3CCOCC3)c3c(Nc4c(Cl)ccc5c4OCO5)ncnc3c2)CC1 [saracatinib]
How it was run: (§1)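 For each measurement, 10 μM compound was applied for 30 min to K562 cells at 2×10^6 cells/mL. Aliquots were heated for 3 min across 48°C-58°C, pooled, and extracted in PBS with 0.5% NP-40 at 4°C; the supernatant after 21,000xg for 90 min was soluble protein. This was quantified by TMTpro 16plex LC-MS/MS with channel sums equalised, and thermal stability was reported relative to control samples from duplicates, on a log2 fold-change scale.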

[2] = compound: CN1CCN(c2nc(C3=C(c4c[nH]c5ccccc45)C(=O)NC3=O)c3ccccc3n2)CC1 [sotrastaurin]
How it was run: as §1

[3] = compound: CN1CCc2c(c3ccccc3n2Cc2ccc(C(=O)NO)cc2)C1 [Tubastatin A]
How it was run: as §1

[4] = compound: CNC(=O)C1=CC=CC=C1NC2=NC(=NC=C2Cl)NC3=C(C=C(C=C3)N4CCOCC4)OC
How it was run: as §1

[5] = compound: CNC(=O)c1ccc(Nc2ncc(C(F)(F)F)c(NCc3nccnc3N(C)S(C)(=O)=O)n2)cc1 [defactinib]
How it was run: as §1

[6] = compound: CNCc1ccc(-c2[nH]c3cc(F)cc4c3c2CCNC4=O)cc1 [rucaparib]
How it was run: as §1

[7] = compound: CNc1nc(-c2ccc3c(N)n[nH]c3c2)cc(N2C[C@@H](C(=O)NC3CCCCC3)CC[C@H]2C)n1
How it was run: as §1

[8] = compound: COC(=O)N[C@@H](C)CNc1nccc(-c2cn(C(C)C)nc2-c2cc(Cl)cc(NS(C)(=O)=O)c2F)n1 [encorafenib]
How it was run: as §1

[9] = compound: COC(=O)[C@H](CCSC)NC(=O)C1=C(C=C(C=C1)NC[C@H](CS)N)C2=CC=CC=C2
How it was run: as §1

[10] = compound: COC1=CC=C(C=C1)CN2C=CC3=C2C=C(C=C3)C(=O)NO
How it was run: as §1

[11] = compound: CON(C)C(=O)N1N=C(c2cc(F)ccc2F)S[C@@]1(CCCN)c1ccccc1 [filanesib]
How it was run: as §1

[12] = compound: CO[C@H]1C[C@@H]2CC[C@@H](C)[C@@](O)(O2)C(=O)C(=O)N2CCCC[C@H]2C(=O)O[C@H]([C@H](C)C[C@@H]2CC[C@H](n3cnnn3)[C@H](OC)C2)CC(=O)[C@H](C)/C=C(\C)[C@@H](O)[C@@H](OC)C(=O)[C@H](C)C[C@H](C)/C=C/C=C/C=C/1C [zotarolimus]
How it was run: as §1

[13] = compound: COc1cc(C(=O)O)ccc1NC(=O)[C@@H]1N[C@@H](CC(C)(C)C)[C@](C#N)(c2ccc(Cl)cc2F)[C@H]1c1cccc(Cl)c1F [idasanutlin]
How it was run: as §1

[14] = compound: COc1cc(Nc2ncc3c(n2)-c2ccc(Cl)cc2C(c2c(F)cccc2OC)=NC3)ccc1C(=O)O [alisertib]
How it was run: as §1

[15] = compound: COc1cc2nc(-c3cc(F)ccc3O)nc(N[C@@H]3CNC[C@H]3C(C)(C)O)c2cc1OC
How it was run: as §1

[16] = compound: COc1cc2ncnc(Nc3ccc(F)c(Cl)c3)c2cc1OCCCN1CCOCC1 [gefitinib]
How it was run: as §1

[17] = compound: COc1cccc2cc(-c3nc([C@H]4CC[C@H](C(=O)O)CC4)n4ncnc(N)c34)[nH]c12
How it was run: as §1

[18] = compound: CS(=O)(=O)CCNCc1ccc(-c2ccc3ncnc(Nc4ccc(OCc5cccc(F)c5)c(Cl)c4)c3c2)o1 [lapatinib]
How it was run: as §1

[19] = compound: CS(=O)(=O)N1CCN(Cc2cc3nc(-c4cccc5[nH]ncc45)nc(N4CCOCC4)c3s2)CC1 [pictilisib]
How it was run: as §1

[20] = compound: CN1CC[C@H](c2c(O)cc(O)c3c(=O)cc(-c4ccccc4Cl)oc23)[C@H](O)C1 [alvocidib]
How it was run: as §1

Measured: log2 fold change

VTI1A (UniProt Q96AJ9)
inactive: [1] 0.101 | [2] 0.027 | [3] -0.028 | [4] 0.095 | [5] -0.03 | [6] -0.058 | [7] -0.042 | [8] -0.001 | [9] 0.07 | [10] 0.014 | [11] -0.015 | [12] -0.024 | [13] -0.023 | [14] -0.039 | [15] -0.003 | [16] 0.024 | [17] 0 | [18] 0.021 | [19] -0.022

WDR7 (UniProt Q9Y4E6)
inactive: [1] 0.024 | [2] 0.041 | [3] -0.047 | [4] -0.114 | [5] -0.3 | [6] 0.128 | [7] -0.015 | [8] -0.174 | [9] -0.373 | [10] -0.04 | [11] 0.084 | [12] 0.045 | [13] -0.016 | [14] -0.076 | [15] -0.102 | [16] -0.027 | [17] -0.074 | [18] 0.003 | [19] -0.097

WTAP (UniProt Q15007)
inactive: [1] 0.072 | [2] 0.028 | [4] -0.099 | [5] -0.074 | [6] 0.212 | [7] -0.152 | [8] 0.092 | [9] -0.019 | [11] 0.053 | [13] 0.269 | [15] -0.002 | [18] 0.087

WDR75 (UniProt Q8IWA0)
inactive: [1] -0.109 | [3] 0.173 | [5] 0.144 | [7] 0.162 | [9] -0.197 | [10] -0.071 | [12] -0.078 | [13] 0.177 | [14] -0.054 | [15] -0.04 | [16] 0.198 | [17] -0.078 | [18] -0.011

Two entries drawn at random from those above:
WDR75 (UniProt Q8IWA0)
inactive: [1] -0.109 | [3] 0.173 | [5] 0.144 | [7] 0.162 | [9] -0.197 | [10] -0.071 | [12] -0.078 | [13] 0.177 | [14] -0.054 | [15] -0.04 | [16] 0.198 | [17] -0.078 | [18] -0.011

WDR7 (UniProt Q9Y4E6)
inactive: [1] 0.024 | [2] 0.041 | [3] -0.047 | [4] -0.114 | [5] -0.3 | [6] 0.128 | [7] -0.015 | [8] -0.174 | [9] -0.373 | [10] -0.04 | [11] 0.084 | [12] 0.045 | [13] -0.016 | [14] -0.076 | [15] -0.102 | [16] -0.027 | [17] -0.074 | [18] 0.003 | [19] -0.097

The list goes on:

WDCP (UniProt Q9H6R7)
inactive: [1] -0.039 | [2] -0.034 | [3] -0.032 | [4] 0 | [5] -0.016 | [6] 0.14 | [7] -0.02 | [8] 0.043 | [9] -0.006 | [10] -0.028 | [11] -0.029 | [12] 0.094 | [13] -0.049 | [14] -0.074 | [15] 0.072 | [16] -0.061 | [17] -0.049 | [18] -0.037 | [19] 0.126

VWA3B isoform 6 (UniProt Q502W6)
inactive: [1] 0.042 | [3] -0.018 | [4] 0.017 | [5] 0.039 | [6] -0.448 | [7] -0.076 | [8] 0.095 | [9] -0.04 | [10] -0.156 | [12] -0.083 | [13] -0.41 | [14] -0.081 | [15] -0.272 | [16] 0.008 | [17] -0.022 | [18] 0.079 | [19] 0.118

WDR46, A0A0G2JJL1
inactive: [1] 0.065 | [2] 0.052 | [3] -0.095 | [4] 0.007 | [5] 0.408 | [6] 0.293 | [7] 0.119 | [8] 0.044 | [9] -0.138 | [10] -0.108 | [11] 0.533 | [14] -0.167 | [15] -0.134 | [16] 0.039 | [17] -0.207 | [18] 0.154

WDR62 isoform 4 (UniProt O43379)
inactive: [1] -0.025 | [2] 0.037 | [3] 0.027 | [4] -0.165 | [5] -0.06 | [6] -0.035 | [7] 0.017 | [8] 0.015 | [9] 0.014 | [10] -0.036 | [11] 0.016 | [12] 0.028 | [13] 0.02 | [14] -0.024 | [15] -0.026 | [16] 0.049 | [17] 0.046 | [18] 0.054 | [19] 0.015

VMA21 isoform 2 (UniProt Q3ZAQ7)
inactive: [1] 0.19 | [20] 0.078 | [3] 0.005 | [4] 0.02 | [6] -0.056 | [7] 0.207 | [8] -0.019 | [10] 0.211 | [12] 0.087 | [13] 0.059 | [14] -0.075 | [15] -0.21 | [16] 0.017 | [17] 0.047 | [18] 0.401 | [19] -0.352

VPS52 (UniProt Q8N1B4)
inactive: [1] -0.012 | [2] -0.107 | [3] 0.074 | [4] -0.047 | [5] -0.031 | [6] 0.121 | [7] -0.01 | [8] 0.02 | [9] -0.072 | [10] -0.003 | [11] 0.017 | [12] 0.044 | [13] 0.088 | [14] -0.069 | [15] 0.058 | [16] 0.014 | [17] -0.022 | [18] -0.043 | [19] -0.02

VEGFA (UniProt H0YBI8)
inactive: [1] 0.058 | [3] 0.155 | [4] 0.025 | [5] -0.049 | [6] -0.027 | [7] -0.055 | [8] -0.273 | [9] 0.148 | [10] -0.155 | [13] 0.221 | [14] -0.536 | [15] 0.572 | [16] 0.392 | [17] 0.087 | [18] 0.054
